Source: US11484543B2, “Compositions and methods for diagnosing and treating diseases and disorders associated with mutant KCNJ5” (The Rockefeller University, priority 2017, dated 2022)
Where two headings read alike, the source gives them in different places.

Target: T1, KCNJ5^G151R (Homo sapiens, UniProt P48544, G151R)
T1 construct: expressed in transfected cells
T1 sequence (P48544 1-419 G151R): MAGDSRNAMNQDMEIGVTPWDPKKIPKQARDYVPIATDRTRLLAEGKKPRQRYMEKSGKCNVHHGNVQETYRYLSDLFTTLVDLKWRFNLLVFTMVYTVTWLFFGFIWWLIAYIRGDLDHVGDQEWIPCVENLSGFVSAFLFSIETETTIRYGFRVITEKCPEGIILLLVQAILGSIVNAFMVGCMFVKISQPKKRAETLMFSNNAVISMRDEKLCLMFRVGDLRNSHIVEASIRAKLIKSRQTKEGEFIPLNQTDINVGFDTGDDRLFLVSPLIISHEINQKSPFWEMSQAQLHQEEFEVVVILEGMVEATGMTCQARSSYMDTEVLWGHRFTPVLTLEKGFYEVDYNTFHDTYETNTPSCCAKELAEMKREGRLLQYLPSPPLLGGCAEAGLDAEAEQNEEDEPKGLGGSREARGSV
Assay: cell-based
Details: HEK293, 72 h
Experimental: WT or mutant human KCNJ5 cDNAs (Choi et al., 2011, Science 331:768-772) were subcloned into the pcDNA5/FRT/TO vector using BamHI and HindIII. Single copies of WT or mutant human KCNJ5 cDNAs expressed under the control of tetracycline-inducible promoter were introduced into HEK293 cells using the Flp-in T-Rex System (Invitrogen) according to the manufacturer's instructions. Cells were grown in selective media containing 10% Tet-system approved FBS (Clontech) until induction.
Assay plates were centrifuged and incubated overnight at 37° C. 20 nL was transferred from the compound source plate to the cell assay plate using an Aquarius (Tecan) with a 384-well pin tool (V&P Scientific). The final concentration of compound for screening was 10 μM and the final DMSO concentration was 0.1%. 1 μL of tetracycline (final concentration 1 μg/mL) was added to compound containing and negative control wells by Multidrop Combi to induce expression. 1 μL of media was added to positive control wells. Assay plates were centrifuged and incubated for 72 hours at 37° C., 5% CO2. CellTiter-Glo (Promega) was used to measure cell viability in the assay wells according to the manufacturer's instructions. 10 μL/well of CellTiter-Glo reagent was added to the assay plates using a MultiDrop Combi. […] Luminescence was read on an Envision plate reader (PerkinElmer) with 0.3 second sampling time per well. Raw data (luminescence counts per second) was normalized to percent effect by the formula 100−(((sample−negative control mean)/(positive control mean−negative control mean))*100).
Data was analyzed using the programs Excel (Microsoft) and Prism (GraphPad). […]
Cellular ATP levels were measured as a proxy for cell viability, using a commercially available luciferase assay (Crouch et al., 1993, Proc. Natl. Acad. Sci. U.S.A. 109:2533-2538).
Conditions were designed to maximize reproducibility and the signal-to-background ratios (S/B) (Zhang et al., 1999, J. Biomol. Screen 4:67-73) comparing ATP level in uninduced and induced cells. […] ATP levels were measured 72 hours after induction. […]

CN1CCC[C@@H]1CCO[C@](C)(c1ccccc1)c1ccc(Cl)cc1 (racemic) [YU033748, Clemastine] gave a viability at 10 µM (read-out: % effect (1)) of 60.8%, a viability at 10 µM (read-out: % effect (2)) of 44.6% and a viability at 10 µM (read-out: mean % effect) of 52.7%.
